The record followed here is paper PMC5581314, “Targeting the Type II Secretion System: Development, Optimization, and Validation of a High-Throughput Screen for the Identification of Small Molecule Inhibitors” (Frontiers in Cellular and Infection Microbiology, 2017).

What is called IC50 is the midpoint of a concentration-inhibition curve. The low end stands for higher potency, the high end for lower potency.

The assay addresses T1, LipA (Acinetobacter baumannii, UniProt A0ABX6CKD6).
T1 construct: gene lip; secreted LipA from plasmid-encoded lipBA, in culture supernatant
The assay can be described thus: 4-nitrophenyl myristate lipase assay; IC50 in whole culture, direct inhibition by cell-free supernatant counter-screen. The assay is classed as cell-based.

Molecules are shown by their SMILES.

Compound `CNCCCC12CCC(c3ccccc31)c1ccccc12` [Maprotiline] returned an IC50 of 16 µM.
